Experimental data: PubChem BioAssay AID1053208 (Peter MacCallum Cancer Centre, 2014)
Purpose: 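Synthetic lethal interactions between gene loss and doxorubicin in osteosarcoma cells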 (primary screen). System: mouse osteosarcoma cells, early-passage culture from an engineered mouse model of fibroblastic bone tumour. Knock-down reagent: siRNA pool against mouse genes, 40 nM. Time to read-out: about 120 h (48 h before drug, then 72 h with drug). Challenge: doxorubicin 100 nM for 72 h, roughly 30-40% inhibitory dose. Read-out: 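Luminescent ATP signal taken as viability with or without 100 nM doxorubicin for 72 h; mean of two wells set against non-targeting siRNA and turned into robust z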. Scale: viability z-score with doxorubicin and doxorubicin viability vs non-targeting: higher = more viable cells under doxorubicin; viability z-score without drug: higher = more viable cells with knock-down alone; z-score of drug to no-drug ratio: higher = less drug sensitisation by knock-down. Active means: 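a pool counts as active when its viability z-score with doxorubicin is -2 or below and its z-score without drug lies between -2 and 2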.
In all, the deposit lists about 17,000 reagents; this is a part drawn at random. Over the whole deposit, 788 (4.7%) are marked active. 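Calls rest on z-score classes alone; an extra cut-off of viability at most 70% of control was not applied to them.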 The numbers tell different reagents against one gene apart. A reagent listed more than once was tested more than once; the source does not tell the runs apart.

Target gene | reagent | combined z-score class | viability z-score with doxorubicin | viability z-score without drug | z-score of drug to no-drug ratio | doxorubicin viability vs non-targeting | Call
Opn4 | 1 | no change with or without drug | 1.12 | 0.17 | 1.12 | 1.04 | inactive
Myrip | 1 | no change with or without drug | 0.9 | -0.34 | 1.35 | 1.02 | inactive
Stx18 | 1 | no change with or without drug | 0.45 | 0.17 | 0.45 | 0.98 | inactive
4930422G04RIK | 1 | no change with or without drug | -1.57 | 1.52 | -2.36 | 0.8 | inactive
Ehd3 | 1 | no change with or without drug | -1.12 | 0.34 | -1.24 | 0.84 | inactive
Camk4 | 1 | no change with or without drug | 0.67 | -1.18 | 1.8 | 1 | inactive
Camk4 | 1 | no change with or without drug | 1.01 | -0.17 | 1.35 | 1.03 | inactive
Or5ac20 | 1 | no change with or without drug | -0.22 | -0.51 | 0.22 | 0.92 | inactive
Or6z7 | 1 | no change with or without drug | -0.9 | -0.84 | -0.22 | 0.86 | inactive
Mettl22 | 1 | no change with or without drug | 1.46 | 1.69 | 0.45 | 1.07 | inactive
2610524H06Rik | 1 | no change with or without drug | -1.35 | -1.35 | -0.45 | 0.82 | inactive
Armc1 | 1 | no change with or without drug | 0.34 | -0.17 | 0.56 | 0.97 | inactive
Cdh11 | 1 | low cell count with doxorubicin only | -2.25 | -0.67 | -1.91 | 0.74 | active
Cox7a1 | 1 | high cell count with and without drug | 2.02 | 2.53 | 0.45 | 1.12 | inactive
Tex21 | 1 | no change with or without drug | 0.67 | -0.17 | 0.9 | 1 | inactive
Chrdl1 | 1 | no change with or without drug | -0.67 | -0.34 | -0.34 | 0.88 | inactive
Dhrs4 | 1 | no change with or without drug | 0.45 | 0.84 | 0 | 0.98 | inactive
Zfp2 | 1 | no change with or without drug | 1.57 | 1.52 | 0.67 | 1.08 | inactive
Wdfy1 | 1 | high cell count without drug only | 1.57 | 2.19 | 0.22 | 1.08 | inactive
Aldoart1 | 1 | high cell count without drug only | -1.01 | 2.87 | -2.47 | 0.85 | inactive
4930433I11Rik | 1 | high cell count without drug only | -1.12 | 2.53 | -2.47 | 0.84 | inactive
Bco2 | 1 | no change with or without drug | 0.9 | 0.84 | 0.45 | 1.02 | inactive
Taf6l | 1 | no change with or without drug | -0.22 | 0.67 | -0.56 | 0.92 | inactive
Ccndbp1 | 1 | no change with or without drug | -0.22 | -1.18 | 0.79 | 0.92 | inactive
Lama1 | 1 | no change with or without drug | 1.69 | 1.52 | 0.79 | 1.09 | inactive
Pbsn | 1 | no change with or without drug | -0.22 | -1.01 | 0.56 | 0.92 | inactive
Otx1 | 1 | no change with or without drug | 1.8 | 0.84 | 1.35 | 1.1 | inactive
Sgms1 | 1 | low cell count without drug only | -1.57 | -2.02 | -0.22 | 0.8 | inactive
Or10h1b | 1 | no change with or without drug | 0.22 | 0.67 | -0.11 | 0.96 | inactive
Arhgap27 | 1 | no change with or without drug | -1.35 | 0.51 | -1.57 | 0.82 | inactive
Arhgap27 | 2 | no change with or without drug | -0.11 | 0.34 | -0.22 | 0.93 | inactive
Lrtm1 | 1 | no change with or without drug | 0.9 | 0.17 | 0.9 | 1.02 | inactive
Or1ad6 | 1 | no change with or without drug | -0.22 | -1.52 | 1.01 | 0.92 | inactive
Adam25 | 1 | no change with or without drug | -0.9 | -0.51 | -0.56 | 0.86 | inactive
Ewsr1 | 1 | no change with or without drug | -0.22 | 1.18 | -0.9 | 0.92 | inactive
Ift80 | 1 | no change with or without drug | -0.79 | 1.52 | -1.57 | 0.87 | inactive
Slc2a1 | 1 | no change with or without drug | 0.67 | 1.01 | 0.11 | 1 | inactive
Or52z13 | 1 | no change with or without drug | 0.45 | 0.17 | 0.45 | 0.98 | inactive
Kcne5 | 1 | no change with or without drug | -0.45 | 0.51 | -0.67 | 0.9 | inactive
Vps13c | 1 | no change with or without drug | -0.34 | -0.17 | -0.11 | 0.91 | inactive
Errfi1 | 1 | high cell count with doxorubicin only | 2.02 | 0.67 | 1.69 | 1.12 | inactive
Adrm1 | 1 | no change with or without drug | -0.9 | -0.17 | -0.79 | 0.86 | inactive
Atp6v1b1 | 1 | no change with or without drug | -0.9 | 0.84 | -1.35 | 0.86 | inactive
Qrfp | 1 | no change with or without drug | -0.9 | -0.17 | -0.79 | 0.86 | inactive
Garnl3 | 1 | no change with or without drug | -1.35 | -1.01 | -0.67 | 0.82 | inactive
Selenow | 1 | no change with or without drug | 0.67 | 0.34 | 0.56 | 1 | inactive
Zfp78 | 1 | no change with or without drug | -0.22 | 0.51 | -0.45 | 0.92 | inactive
Or8d2 | 1 | low cell count with and without drug | -2.25 | -2.87 | -0.34 | 0.74 | inactive
Zfp513 | 1 | no change with or without drug | 0.34 | 0.51 | 0.11 | 0.97 | inactive
Pigo | 1 | no change with or without drug | 1.46 | 1.18 | 0.79 | 1.07 | inactive

Looked up above:
Pbsn, viability z-score without drug: -1.01
Stx18, doxorubicin viability vs non-targeting: 0.98
Value for Opn4 in “viability z-score without drug”: 0.17
Adrm1, viability z-score without drug: -0.17
